Measured values taken from PMC4764946.
These are yes or no findings as the source states them, for the method shown. In cells and extracts the contact can be indirect. Some results given as binding are weak or reduced against the parent protein; the word gives no strength.

Amino acid sequences for entries named in this document (tags omitted). Chains listed by the source or under a name are the forms on record and can include a tag or linker. Residues count along the entry.
MBP-fused procaspase-8 death effector domain-A (DED-A) (Q14790, residues 1-80): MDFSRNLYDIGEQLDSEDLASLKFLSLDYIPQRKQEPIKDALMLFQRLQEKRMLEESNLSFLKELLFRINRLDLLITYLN
MBP-fused procaspase-8 death effector domain-B (DED-B) (Q14790, residues 100-181): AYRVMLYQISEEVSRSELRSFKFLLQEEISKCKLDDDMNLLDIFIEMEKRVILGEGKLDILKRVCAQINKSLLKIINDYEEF
UniProt P06790, residues 1-201: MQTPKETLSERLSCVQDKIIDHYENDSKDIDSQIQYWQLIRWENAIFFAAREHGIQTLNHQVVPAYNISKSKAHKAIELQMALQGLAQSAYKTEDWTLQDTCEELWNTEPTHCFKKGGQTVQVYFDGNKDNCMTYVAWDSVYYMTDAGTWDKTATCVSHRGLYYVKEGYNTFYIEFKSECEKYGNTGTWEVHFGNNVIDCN

Assays:
[1] = target: MBP-fused procaspase-8 death effector domain-A (DED-A) (UniProt Q14790); assay: pull-down; MBP-fused DED construct (bait) and E2 TAD-his6 (prey) co-expressed in E. coli BL21 (DE3); lysate in buffer-A (20 mM Na2HPO4/NaH2PO4 pH 7.8, 250 mM NaCl, 0.1 mM DTT, 1% glycerol) passed over amylose resin; 12% SDS-PAGE, Coomassie or anti-E2 immunoblot
[2] = target: MBP-fused procaspase-8 death effector domain-B (DED-B) (UniProt Q14790); assay: as above
[3] = target: HPV18 E2 transactivation domain (TAD), C-terminal his6 tag (human papillomavirus type 18 (HPV18)) (UniProt P06790); assay: pull-down; reverse pull-down: E2 TAD-his6 (bait) and MBP-fused DED construct (prey) co-expressed in E. coli BL21 (DE3); lysate in buffer-A passed over Ni-IDA resin; 12% SDS-PAGE, Coomassie

Row | Substance | binding [1] | binding [2] | binding [3]
1 | HPV18 E2 transactivation domain (TAD), C-terminal his6 tag (from UniProt P06790 1-201) (domain or fragment) | binds weakly | binds | 
2 | MBP-fused procaspase-8 death effector domain-A (DED-A) (from UniProt Q14790 1-80) (domain or fragment) |  |  | binds weakly
3 | MBP-fused procaspase-8 death effector domain-B (DED-B) (from UniProt Q14790 100-181) (domain or fragment) |  |  | binds
